Data from patent publication US4122204A, “N-(4-tert-butylphenylthiosulfenyl)-N-alkyl aryl carbamate compounds” (priority 1976, dated 1978).
At least one compound was matched to its structure with a doubt left.

Test system: mites and insects
Assay: Pesticidal activity against mites and insects (general statement)
Settings: in vivo
Method: Selected species of the new compounds were evaluated in comparison with known similar prior art compounds to determine their pesticidal activity against mites and certain insects, including an aphid, a caterpillar, a beetle and a fly. The new compounds were further evaluated for mammalian toxicity.

With `CC(C)Oc1ccccc1OC(=O)N(C)SSc1ccc(C(C)(C)C)cc1` [Compound 4, 2-Isopropoxy-[N-methyl-N-(4-tert-butylphenylthiosulfenyl)carbamoyloxy]benzene] the “pesticidal activity against mites and insects (in words)” value was “outstanding pesticidal activity”.
